Measurements from paper PMC12073896.
Results are given in words; binding and its absence hold for the method and conditions named. For part of these data: In cells and extracts the contact can be indirect. Some binding calls cover weakened binding; strength is not graded here.

Protein sequences, listed by entry. Tags and fused reporters are not part of them.
UniProt Q96RR4: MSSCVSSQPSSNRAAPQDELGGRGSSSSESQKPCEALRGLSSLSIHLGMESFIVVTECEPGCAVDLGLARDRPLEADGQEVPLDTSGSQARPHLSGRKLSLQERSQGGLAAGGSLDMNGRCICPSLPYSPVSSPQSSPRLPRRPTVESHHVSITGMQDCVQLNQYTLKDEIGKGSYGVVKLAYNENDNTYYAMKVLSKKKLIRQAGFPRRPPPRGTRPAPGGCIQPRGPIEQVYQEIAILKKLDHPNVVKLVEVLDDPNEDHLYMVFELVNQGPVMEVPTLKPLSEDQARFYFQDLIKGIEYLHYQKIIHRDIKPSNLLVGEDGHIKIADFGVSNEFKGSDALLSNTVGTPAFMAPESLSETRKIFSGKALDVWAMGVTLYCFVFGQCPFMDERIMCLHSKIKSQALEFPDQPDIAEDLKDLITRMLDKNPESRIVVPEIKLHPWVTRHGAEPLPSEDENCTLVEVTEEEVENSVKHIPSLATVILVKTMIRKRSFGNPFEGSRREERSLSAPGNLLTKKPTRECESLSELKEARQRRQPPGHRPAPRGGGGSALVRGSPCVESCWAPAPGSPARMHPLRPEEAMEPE
UniProt Q03135: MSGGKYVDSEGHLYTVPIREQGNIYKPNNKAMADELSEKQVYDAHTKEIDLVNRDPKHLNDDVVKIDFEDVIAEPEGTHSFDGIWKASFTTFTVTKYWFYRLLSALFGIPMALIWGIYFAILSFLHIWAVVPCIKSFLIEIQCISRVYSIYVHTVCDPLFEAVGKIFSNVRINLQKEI

Legend:
[1] = target: HA-tagged CaMKK2 (calcium–calmodulin-dependent protein kinase kinase 2) (human) (UniProt Q96RR4); assay: co-IP; HK-2 cells co-transfected with Flag-tagged CAV1 and HA-tagged CaMKK2 for 48 h; lysates incubated overnight at 4°C with Anti-Flag Affinity Gel or HA antibodies; Western blot with anti-Flag and anti-HA
[2] = target: Flag-tagged CAV1 (Caveolin-1) (human) (UniProt Q03135); assay: as above
[3] = target: GST-CAMKK2 fusion protein (UniProt Q96RR4); assay: pull-down; GST-CAMKK2 on Sepharose 4B beads; 20 μL SUMO-CAV1-His protein solution added; 4–8 h at 4°C on a shaker; GST-coupled beads as negative control; Western blot; both purified

With “Flag-tagged CAV1 (Caveolin-1) (from UniProt Q03135 1-178)” the binding [1] was “binds”.
For “HA-tagged CaMKK2 (calcium–calmodulin-dependent protein kinase kinase 2) (from UniProt Q96RR4 1-588) (enzyme)”, the binding [2] was “binds”.
“SUMO-CAV1-His fusion protein (from UniProt Q03135 1-178)” was tested, and the binding [3] was “binds”.
